According to the supplement of paper PMC12823440, “Inhibitors supercharge kinase turnover through native proteolytic circuits” (Nature, 2025):
Counter-ions that a name gives are not always drawn. The list shows a part of the results. Hit calls seldom repeat between salt and free forms of one compound.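 In K562 cells expressing nanoluciferase-fused kinases, luminescence was recorded at 4 h intervals between 2 and 18 h, normalized as percent of control with DMSO at 100% and a positive control at 0%. A significant (2 sigma) signal drop marks a time point as decreased. The authors' rule for a hit is not shown and takes in more than the number of time points.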

Chains of the proteins cited; added tags and fusions are not shown. Lines headed by an entry give the natural chain unless they say otherwise; changes in a name come on top.
UniProt P49137, whole entry, looked up: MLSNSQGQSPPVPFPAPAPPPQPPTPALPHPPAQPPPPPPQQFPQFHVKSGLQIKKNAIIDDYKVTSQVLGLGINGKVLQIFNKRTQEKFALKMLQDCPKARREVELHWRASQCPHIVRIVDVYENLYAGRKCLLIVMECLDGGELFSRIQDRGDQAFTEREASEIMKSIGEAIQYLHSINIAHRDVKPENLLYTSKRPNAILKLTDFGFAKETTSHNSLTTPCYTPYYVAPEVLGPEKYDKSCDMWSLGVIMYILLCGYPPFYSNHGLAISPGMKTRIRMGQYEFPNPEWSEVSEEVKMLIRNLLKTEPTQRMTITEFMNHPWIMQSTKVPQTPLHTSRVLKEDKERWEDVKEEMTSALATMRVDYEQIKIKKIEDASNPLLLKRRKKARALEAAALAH
UniProt O96013: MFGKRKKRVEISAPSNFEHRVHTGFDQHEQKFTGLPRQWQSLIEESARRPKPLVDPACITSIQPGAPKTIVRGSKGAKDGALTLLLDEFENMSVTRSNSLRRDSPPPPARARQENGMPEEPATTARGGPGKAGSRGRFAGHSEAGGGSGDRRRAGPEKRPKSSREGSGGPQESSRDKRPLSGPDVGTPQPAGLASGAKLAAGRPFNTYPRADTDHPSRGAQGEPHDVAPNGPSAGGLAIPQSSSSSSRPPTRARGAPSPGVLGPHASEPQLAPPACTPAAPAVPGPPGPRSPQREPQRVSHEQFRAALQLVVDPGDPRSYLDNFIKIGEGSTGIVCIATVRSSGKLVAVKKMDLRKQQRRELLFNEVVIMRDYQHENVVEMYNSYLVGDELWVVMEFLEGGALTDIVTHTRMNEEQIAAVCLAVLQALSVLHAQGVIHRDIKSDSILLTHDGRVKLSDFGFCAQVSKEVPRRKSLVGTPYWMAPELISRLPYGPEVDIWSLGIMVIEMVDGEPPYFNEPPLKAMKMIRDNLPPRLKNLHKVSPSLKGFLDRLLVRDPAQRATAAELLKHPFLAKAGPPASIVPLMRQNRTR
UniProt P09619, whole entry: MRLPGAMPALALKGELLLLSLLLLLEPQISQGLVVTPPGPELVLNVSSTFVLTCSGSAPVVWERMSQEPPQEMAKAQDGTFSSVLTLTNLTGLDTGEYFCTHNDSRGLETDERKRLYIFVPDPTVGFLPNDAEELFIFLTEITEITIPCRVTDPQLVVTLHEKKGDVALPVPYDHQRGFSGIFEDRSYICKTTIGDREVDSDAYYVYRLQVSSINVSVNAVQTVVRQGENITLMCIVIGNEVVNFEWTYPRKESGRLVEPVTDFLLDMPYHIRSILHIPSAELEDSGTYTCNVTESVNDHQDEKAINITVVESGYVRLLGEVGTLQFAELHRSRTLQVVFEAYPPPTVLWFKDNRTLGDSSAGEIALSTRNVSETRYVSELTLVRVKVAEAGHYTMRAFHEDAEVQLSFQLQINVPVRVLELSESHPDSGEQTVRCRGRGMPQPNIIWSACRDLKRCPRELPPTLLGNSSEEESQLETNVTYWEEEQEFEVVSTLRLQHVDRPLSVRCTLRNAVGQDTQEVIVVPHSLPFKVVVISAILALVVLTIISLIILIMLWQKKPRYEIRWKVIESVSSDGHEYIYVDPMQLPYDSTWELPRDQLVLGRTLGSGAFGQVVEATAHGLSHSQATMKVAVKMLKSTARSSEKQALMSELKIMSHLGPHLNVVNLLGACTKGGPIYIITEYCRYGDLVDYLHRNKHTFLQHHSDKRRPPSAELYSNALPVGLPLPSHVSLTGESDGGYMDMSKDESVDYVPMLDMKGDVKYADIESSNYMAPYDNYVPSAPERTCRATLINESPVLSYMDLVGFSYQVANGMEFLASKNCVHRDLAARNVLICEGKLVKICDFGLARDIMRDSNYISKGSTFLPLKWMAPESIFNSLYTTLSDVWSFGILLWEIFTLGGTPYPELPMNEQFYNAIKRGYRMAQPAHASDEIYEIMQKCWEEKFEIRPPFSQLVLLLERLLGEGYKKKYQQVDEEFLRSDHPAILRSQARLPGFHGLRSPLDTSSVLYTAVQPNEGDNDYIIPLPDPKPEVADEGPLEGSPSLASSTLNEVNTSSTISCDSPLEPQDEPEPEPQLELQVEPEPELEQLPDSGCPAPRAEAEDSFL
UniProt Q15118, whole entry, looked up: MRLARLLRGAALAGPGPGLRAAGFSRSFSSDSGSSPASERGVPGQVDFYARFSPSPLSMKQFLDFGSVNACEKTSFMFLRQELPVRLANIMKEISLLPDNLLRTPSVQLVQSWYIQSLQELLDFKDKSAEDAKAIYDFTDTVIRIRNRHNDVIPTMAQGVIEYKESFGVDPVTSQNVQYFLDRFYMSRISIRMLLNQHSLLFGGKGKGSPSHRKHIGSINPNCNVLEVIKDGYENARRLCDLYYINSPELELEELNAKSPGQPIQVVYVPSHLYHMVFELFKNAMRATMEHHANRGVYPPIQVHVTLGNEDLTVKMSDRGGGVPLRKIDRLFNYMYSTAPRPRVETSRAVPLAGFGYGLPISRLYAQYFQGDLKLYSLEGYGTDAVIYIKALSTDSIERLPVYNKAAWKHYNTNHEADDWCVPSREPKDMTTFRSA
UniProt O15530: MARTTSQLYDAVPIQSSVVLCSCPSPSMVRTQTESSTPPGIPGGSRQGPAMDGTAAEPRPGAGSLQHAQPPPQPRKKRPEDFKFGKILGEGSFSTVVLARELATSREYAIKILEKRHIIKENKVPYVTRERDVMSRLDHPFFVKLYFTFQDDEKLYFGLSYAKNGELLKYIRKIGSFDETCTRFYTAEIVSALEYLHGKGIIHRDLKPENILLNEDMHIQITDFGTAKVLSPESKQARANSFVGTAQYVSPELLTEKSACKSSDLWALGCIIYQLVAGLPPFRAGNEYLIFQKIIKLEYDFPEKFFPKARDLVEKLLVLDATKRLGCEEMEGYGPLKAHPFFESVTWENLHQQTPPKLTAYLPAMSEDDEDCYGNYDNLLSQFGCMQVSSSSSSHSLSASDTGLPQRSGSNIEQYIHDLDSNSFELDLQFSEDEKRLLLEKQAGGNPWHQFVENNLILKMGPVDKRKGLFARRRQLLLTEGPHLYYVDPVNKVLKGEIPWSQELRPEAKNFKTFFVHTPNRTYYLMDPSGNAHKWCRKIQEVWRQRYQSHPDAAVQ
UniProt P53350, whole entry: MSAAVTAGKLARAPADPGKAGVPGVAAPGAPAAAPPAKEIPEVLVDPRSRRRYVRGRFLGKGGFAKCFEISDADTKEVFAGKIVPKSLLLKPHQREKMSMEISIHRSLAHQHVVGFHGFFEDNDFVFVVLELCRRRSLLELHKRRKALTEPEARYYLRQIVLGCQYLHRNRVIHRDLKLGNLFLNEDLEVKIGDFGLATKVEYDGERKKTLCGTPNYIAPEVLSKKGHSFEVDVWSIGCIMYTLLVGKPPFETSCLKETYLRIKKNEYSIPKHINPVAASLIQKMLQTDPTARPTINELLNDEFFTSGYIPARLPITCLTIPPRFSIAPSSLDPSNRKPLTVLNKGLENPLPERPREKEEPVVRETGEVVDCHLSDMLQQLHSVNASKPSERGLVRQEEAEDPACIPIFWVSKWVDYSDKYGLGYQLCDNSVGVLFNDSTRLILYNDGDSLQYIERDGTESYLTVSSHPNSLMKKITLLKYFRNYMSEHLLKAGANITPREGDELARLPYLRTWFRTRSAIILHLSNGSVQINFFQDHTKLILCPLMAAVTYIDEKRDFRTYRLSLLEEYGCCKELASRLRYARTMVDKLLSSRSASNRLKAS
UniProt Q05397, whole entry, looked up: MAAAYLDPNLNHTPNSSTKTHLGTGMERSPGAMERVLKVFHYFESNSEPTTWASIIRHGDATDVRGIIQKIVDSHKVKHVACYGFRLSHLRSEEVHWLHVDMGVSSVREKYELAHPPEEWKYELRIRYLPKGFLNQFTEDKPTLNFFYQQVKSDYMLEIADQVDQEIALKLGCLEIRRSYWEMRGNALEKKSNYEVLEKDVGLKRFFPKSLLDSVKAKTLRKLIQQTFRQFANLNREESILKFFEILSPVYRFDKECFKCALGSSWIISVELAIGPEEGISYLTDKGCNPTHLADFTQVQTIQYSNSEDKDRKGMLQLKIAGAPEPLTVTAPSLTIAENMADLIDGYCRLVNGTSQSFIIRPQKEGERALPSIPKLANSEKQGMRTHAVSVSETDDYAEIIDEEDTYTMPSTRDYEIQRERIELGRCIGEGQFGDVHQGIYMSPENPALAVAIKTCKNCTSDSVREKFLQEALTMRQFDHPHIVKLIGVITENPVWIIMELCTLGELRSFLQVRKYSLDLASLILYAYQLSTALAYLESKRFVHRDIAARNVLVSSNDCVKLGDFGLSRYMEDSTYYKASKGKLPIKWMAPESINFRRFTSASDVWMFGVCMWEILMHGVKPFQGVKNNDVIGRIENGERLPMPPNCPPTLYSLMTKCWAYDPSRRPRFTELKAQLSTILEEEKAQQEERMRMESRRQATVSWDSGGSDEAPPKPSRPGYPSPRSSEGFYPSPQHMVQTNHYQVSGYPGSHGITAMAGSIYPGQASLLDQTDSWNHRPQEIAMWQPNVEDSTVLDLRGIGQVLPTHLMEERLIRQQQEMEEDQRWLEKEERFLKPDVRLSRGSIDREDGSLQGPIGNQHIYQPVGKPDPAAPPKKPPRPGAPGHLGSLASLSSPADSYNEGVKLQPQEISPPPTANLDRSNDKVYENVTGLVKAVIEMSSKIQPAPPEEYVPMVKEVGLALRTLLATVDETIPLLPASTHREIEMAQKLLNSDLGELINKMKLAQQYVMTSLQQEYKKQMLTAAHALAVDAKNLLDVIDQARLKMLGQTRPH
UniProt Q14289, whole entry, looked up: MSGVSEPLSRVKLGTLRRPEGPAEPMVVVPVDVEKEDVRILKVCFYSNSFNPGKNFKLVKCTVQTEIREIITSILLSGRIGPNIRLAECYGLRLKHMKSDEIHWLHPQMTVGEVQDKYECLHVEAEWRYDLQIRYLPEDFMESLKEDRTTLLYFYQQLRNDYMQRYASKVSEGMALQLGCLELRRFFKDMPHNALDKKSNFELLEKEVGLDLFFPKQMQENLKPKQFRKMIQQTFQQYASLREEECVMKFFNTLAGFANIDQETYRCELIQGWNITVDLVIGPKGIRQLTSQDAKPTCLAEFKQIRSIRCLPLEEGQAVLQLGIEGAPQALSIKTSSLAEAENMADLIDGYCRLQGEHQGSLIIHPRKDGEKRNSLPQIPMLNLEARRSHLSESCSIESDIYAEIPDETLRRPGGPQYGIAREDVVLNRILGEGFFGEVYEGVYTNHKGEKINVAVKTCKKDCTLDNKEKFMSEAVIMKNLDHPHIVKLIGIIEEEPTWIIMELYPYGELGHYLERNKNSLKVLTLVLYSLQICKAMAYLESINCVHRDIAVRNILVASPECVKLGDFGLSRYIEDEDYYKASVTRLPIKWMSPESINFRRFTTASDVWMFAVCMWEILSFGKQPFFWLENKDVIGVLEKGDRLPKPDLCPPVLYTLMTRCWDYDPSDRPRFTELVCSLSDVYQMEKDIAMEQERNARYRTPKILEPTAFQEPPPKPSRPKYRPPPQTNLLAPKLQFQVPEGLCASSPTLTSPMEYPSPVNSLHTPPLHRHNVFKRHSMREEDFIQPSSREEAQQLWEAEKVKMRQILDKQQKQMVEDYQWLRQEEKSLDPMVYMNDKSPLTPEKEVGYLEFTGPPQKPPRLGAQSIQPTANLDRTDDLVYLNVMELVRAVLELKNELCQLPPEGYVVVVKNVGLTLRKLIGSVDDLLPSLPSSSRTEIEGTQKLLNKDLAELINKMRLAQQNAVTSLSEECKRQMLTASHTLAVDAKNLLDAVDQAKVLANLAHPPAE

Experiments:
Test in all cases: kinase-Nluc reporter destabilization hit call (1 = scored as downregulated) (binary); higher = compound decreases kinase abundance
Conditions in all cases: K562; 2-18 h
[1] = molecular target: MAPK1 (UniProt P28482)
[2] = molecular target: MAPK4 (UniProt P31152)
[3] = molecular target: MAPKAPK2 (UniProt P49137)
[4] = molecular target: MKNK1 (UniProt Q9BUB5)
[5] = molecular target: NTRK2 (UniProt Q16620)
[6] = molecular target: NTRK3 (UniProt Q16288)
[7] = molecular target: PAK4 (UniProt O96013)
[8] = molecular target: PBK (UniProt Q96KB5)
[9] = molecular target: PDGFRB (UniProt P09619)
[10] = molecular target: PDK1 (UniProt Q15118)
[11] = molecular target: PDPK1 (UniProt O15530)
[12] = molecular target: PIK4CA (UniProt P42356)
[13] = molecular target: PIK4CB (UniProt Q9UBF8)
[14] = molecular target: PLK1 (UniProt P53350)
[15] = molecular target: PRKAA1 (UniProt Q13131)
[16] = molecular target: PRKCA (UniProt P17252)
[17] = molecular target: PTK2 (UniProt Q05397)
[18] = molecular target: PTK2B (UniProt Q14289)
[19] = molecular target: RAF1 (UniProt P04049)
[20] = molecular target: RAF1_S257L (clone: RAF1_mut) (UniProt P04049)

Measured: kinase-Nluc reporter destabilization hit call

Cc1ccc(Nc2c(C(N)=O)cnc3cc(-c4ccncc4)ccc23)cc1C [cFMS Receptor Inhibitor II] (10 µM)
inactive: [1] 0 | [2] 0 | [3] 0 | [4] 0 | [5] 0 | [6] 0 | [7] 0 | [8] 0 | [9] 0 | [10] 0 | [11] 0 | [12] 0 | [13] 0 | [14] 0 | [15] 0 | [16] 0 | [17] 0 | [18] 0 | [19] 0 | [20] 0

CC[C@H](C)[C@@H]1NC(=O)[C@@H]2CCCN2C(=O)[C@@H]2CCCN2C(=O)[C@@H]2CCCN2C(=O)[C@H](CC(C)C)NC(=O)CNC(=O)CNC(=O)[C@H](Cc2ccccc2)NC1=O [Heterophyllin B] (10 µM)
inactive: [1] 0 | [2] 0 | [3] 0 | [4] 0 | [5] 0 | [6] 0 | [7] 0 | [8] 0 | [9] 0 | [10] 0 | [11] 0 | [12] 0 | [13] 0 | [14] 0 | [15] 0 | [16] 0 | [17] 0 | [18] 0 | [19] 0 | [20] 0

CC(C)=CCC/C(C)=C/CC/C(C)=C/CSc1ccccc1C(=O)O [Salirasib] (10 µM)
inactive: [1] 0 | [2] 0 | [3] 0 | [4] 0 | [5] 0 | [6] 0 | [7] 0 | [8] 0 | [9] 0 | [10] 0 | [11] 0 | [12] 0 | [13] 0 | [14] 0 | [15] 0 | [16] 0 | [17] 0 | [18] 0 | [19] 0 | [20] 0

Pulled one by one from the list above, two records:
Cc1ccc(Nc2c(C(N)=O)cnc3cc(-c4ccncc4)ccc23)cc1C [cFMS Receptor Inhibitor II] (10 µM)
inactive: [1] 0 | [2] 0 | [3] 0 | [4] 0 | [5] 0 | [6] 0 | [7] 0 | [8] 0 | [9] 0 | [10] 0 | [11] 0 | [12] 0 | [13] 0 | [14] 0 | [15] 0 | [16] 0 | [17] 0 | [18] 0 | [19] 0 | [20] 0

CC(C)=CCC/C(C)=C/CC/C(C)=C/CSc1ccccc1C(=O)O [Salirasib] (10 µM)
inactive: [1] 0 | [2] 0 | [3] 0 | [4] 0 | [5] 0 | [6] 0 | [7] 0 | [8] 0 | [9] 0 | [10] 0 | [11] 0 | [12] 0 | [13] 0 | [14] 0 | [15] 0 | [16] 0 | [17] 0 | [18] 0 | [19] 0 | [20] 0

The list goes on:

Cc1ccc(CNC(=O)N2CCC[C@]3(CCN(Cc4ccc(Cl)c(Cl)c4)C3)C2)cc1 (10 µM)
inactive: [1] 0 | [2] 0 | [3] 0 | [4] 0 | [5] 0 | [6] 0 | [7] 0 | [8] 0 | [9] 0 | [10] 0 | [11] 0 | [12] 0 | [13] 0 | [14] 0 | [15] 0 | [16] 0 | [17] 0 | [18] 0 | [19] 0 | [20] 0

O=C1c2cccc(O)c2C(=O)c2c(O)cccc21 [Danthron] (10 µM)
inactive: [1] 0 | [2] 0 | [3] 0 | [4] 0 | [5] 0 | [6] 0 | [7] 0 | [8] 0 | [9] 0 | [10] 0 | [11] 0 | [12] 0 | [13] 0 | [14] 0 | [15] 0 | [16] 0 | [17] 0 | [18] 0 | [19] 0 | [20] 0

OCCC#Cc1nc(-c2ccc(F)cc2)c(-c2ccncc2)n1CCCc1ccccc1 (2.5 µM)
inactive: [1] 0 | [2] 0 | [3] 0 | [4] 0 | [5] 0 | [6] 0 | [7] 0 | [8] 0 | [9] 0 | [10] 0 | [11] 0 | [12] 0 | [13] 0 | [14] 0 | [15] 0 | [16] 0 | [17] 0 | [18] 0 | [19] 0 | [20] 0

COc1c(OCCCN2CCOCC2)ccc2c3n(c(=NC(=O)c4cnc(N)nc4)nc12)CCN3 [Copanlisib (dihydrochloride)] (10 µM)
inactive: [1] 0 | [2] 0 | [3] 0 | [4] 0 | [5] 0 | [6] 0 | [7] 0 | [8] 0 | [9] 0 | [10] 0 | [11] 0 | [12] 0 | [13] 0 | [14] 0 | [15] 0 | [16] 0 | [17] 0 | [18] 0 | [19] 0 | [20] 0

COC(=O)[C@]1(C)CC[C@]2(C(=O)O[C@@H]3O[C@H](CO)[C@@H](O)[C@H](O)[C@H]3O)CC[C@]3(C)C(=CC[C@@H]4[C@@]5(C)C[C@H](O)[C@H](O[C@@H]6OC[C@@H](O[C@@H]7O[C@H](CO)[C@@H](O)[C@H](O)[C@H]7O)[C@H](O)[C@H]6O)[C@@](C)(CO)C5CC[C@]43C)[C@H]2C1 (stereo not given in full) [Esculentoside H] (10 µM)
inactive: [1] 0 | [2] 0 | [3] 0 | [4] 0 | [5] 0 | [6] 0 | [7] 0 | [8] 0 | [9] 0 | [10] 0 | [11] 0 | [12] 0 | [13] 0 | [14] 0 | [15] 0 | [16] 0 | [17] 0 | [18] 0 | [19] 0 | [20] 0

COc1ccc(S(=O)(=O)N(CCO)c2ccccc2CN(C)CC=Cc2ccc(Cl)cc2)cc1 (2.5 µM)
inactive: [1] 0 | [2] 0 | [3] 0 | [4] 0 | [5] 0 | [6] 0 | [7] 0 | [8] 0 | [9] 0 | [10] 0 | [11] 0 | [12] 0 | [13] 0 | [14] 0 | [15] 0 | [16] 0 | [17] 0 | [18] 0 | [19] 0 | [20] 0

CNC(=O)c1ccc(-c2cnc3ncc(Cc4ccc5ncccc5c4)n3n2)cc1F [Capmatinib] (10 µM)
inactive: [1] 0 | [2] 0 | [3] 0 | [4] 0 | [5] 0 | [6] 0 | [7] 0 | [8] 0 | [9] 0 | [10] 0 | [11] 0 | [12] 0 | [13] 0 | [14] 0 | [15] 0 | [16] 0 | [17] 0 | [18] 0 | [19] 0 | [20] 0

C[C@@H]1CC[C@]2(C(=O)O)CC[C@]3(C)C(=CC[C@@H]4[C@@]5(C)CC[C@H](O)[C@@](C)(CO)[C@@H]5CC[C@]43C)[C@@H]2[C@]1(C)O [Rotundic acid] (10 µM)
inactive: [1] 0 | [2] 0 | [3] 0 | [4] 0 | [5] 0 | [6] 0 | [7] 0 | [8] 0 | [9] 0 | [10] 0 | [11] 0 | [12] 0 | [13] 0 | [14] 0 | [15] 0 | [16] 0 | [17] 0 | [18] 0 | [19] 0 | [20] 0

C[C@@]12CCc3occc3[C@H]1CC[C@@]13C[C@@H](CC[C@H]12)[C@@](O)(CO)C3 [Cafestol] (10 µM)
inactive: [1] 0 | [2] 0 | [3] 0 | [4] 0 | [5] 0 | [6] 0 | [7] 0 | [8] 0 | [9] 0 | [10] 0 | [11] 0 | [12] 0 | [13] 0 | [14] 0 | [15] 0 | [16] 0 | [17] 0 | [18] 0 | [19] 0 | [20] 0

CC(=O)NCC(=O)N[C@@H](C)C(=O)N[C@@H](CCC(N)=O)C(=O)N[C@@H](Cc1ccccc1)C(=O)N[C@@H](CO)C(=O)N[C@@H](CCCCN)C(=O)N[C@H](C(=O)N[C@@H](C)C(=O)N[C@@H](C)C(=O)N[C@@H](CCCCN)C(=O)O)[C@@H](C)O (10 µM)
inactive: [1] 0 | [2] 0 | [3] 0 | [4] 0 | [5] 0 | [6] 0 | [7] 0 | [8] 0 | [9] 0 | [10] 0 | [11] 0 | [12] 0 | [13] 0 | [14] 0 | [15] 0 | [16] 0 | [17] 0 | [18] 0 | [19] 0 | [20] 0

C=CC(=O)Nc1cccc(Oc2nc(Nc3ccc(N4CCN(C)CC4)cc3)ncc2Cl)c1 (2.5 µM)
inactive: [1] 0 | [2] 0 | [3] 0 | [4] 0 | [5] 0 | [6] 0 | [7] 0 | [8] 0 | [9] 0 | [10] 0 | [11] 0 | [12] 0 | [13] 0 | [14] 0 | [15] 0 | [16] 0 | [17] 0 | [18] 0 | [19] 0 | [20] 0

C[C@H]1CNC(=O)c2cnn3ccc(nc23)N[C@H](C)c2cc(F)ccc2O1 [Repotrectinib] (2.5 µM)
inactive: [1] 0 | [2] 0 | [3] 0 | [4] 0 | [5] 0 | [6] 0 | [7] 0 | [8] 0 | [9] 0 | [10] 0 | [11] 0 | [12] 0 | [13] 0 | [14] 0 | [15] 0 | [16] 0 | [17] 0 | [18] 0 | [19] 0 | [20] 0

C[C@H](Nc1ccc2c(c1)OCCn1cc(N3C(=O)OC[C@H]3C(F)F)nc1-2)C(N)=O (10 µM)
inactive: [1] 0 | [2] 0 | [3] 0 | [4] 0 | [5] 0 | [6] 0 | [7] 0 | [8] 0 | [9] 0 | [10] 0 | [11] 0 | [12] 0 | [13] 0 | [14] 0 | [15] 0 | [16] 0 | [17] 0 | [18] 0 | [19] 0 | [20] 0

CC(C)(C)S(=O)(=O)c1cc2c(Nc3ccc4scnc4c3)ccnc2cc1OCCOCCOCCOCCOCC(=O)Nc1cccc2c1CN(C1CCC(=O)NC1=O)C2=O (stereo not given) [PROTAC RIPK degrader-6] (10 µM)
inactive: [1] 0 | [2] 0 | [3] 0 | [4] 0 | [5] 0 | [6] 0 | [7] 0 | [8] 0 | [9] 0 | [10] 0 | [11] 0 | [12] 0 | [13] 0 | [14] 0 | [15] 0 | [16] 0 | [17] 0 | [18] 0 | [19] 0 | [20] 0
